In paper PMC11515916:
Like-named read-outs stand apart in the source and are kept apart here. No constants are given. Whether binding was seen depends on the method and setting. For some assays here: In cells and extracts the contact can be indirect. Some results given as binding are weak or reduced against the parent protein; the word gives no strength. For some assays here: Tags and fused reporters may be left off the sequences shown. Values belong to the molecule of their own block, whether it stands above or below them.

Chains of the proteins cited; added tags and fusions are not shown. Lines headed by an entry give the natural chain unless they say otherwise; changes in a name come on top.
UniProt P17098: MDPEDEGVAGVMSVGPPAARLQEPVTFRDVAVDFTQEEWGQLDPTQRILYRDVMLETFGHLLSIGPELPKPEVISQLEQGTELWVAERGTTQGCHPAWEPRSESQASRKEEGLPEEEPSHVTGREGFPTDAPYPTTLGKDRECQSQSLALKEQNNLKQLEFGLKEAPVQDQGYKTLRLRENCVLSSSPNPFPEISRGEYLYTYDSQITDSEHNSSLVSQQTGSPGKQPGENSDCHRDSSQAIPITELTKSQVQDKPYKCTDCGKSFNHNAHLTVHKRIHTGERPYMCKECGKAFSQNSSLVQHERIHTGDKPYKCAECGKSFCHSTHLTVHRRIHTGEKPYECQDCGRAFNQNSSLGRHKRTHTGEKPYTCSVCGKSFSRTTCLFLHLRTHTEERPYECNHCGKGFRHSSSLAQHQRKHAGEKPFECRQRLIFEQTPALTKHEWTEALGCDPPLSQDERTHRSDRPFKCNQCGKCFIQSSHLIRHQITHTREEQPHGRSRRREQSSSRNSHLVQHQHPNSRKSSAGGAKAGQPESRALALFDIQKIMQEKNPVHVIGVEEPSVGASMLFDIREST
UniProt P84022: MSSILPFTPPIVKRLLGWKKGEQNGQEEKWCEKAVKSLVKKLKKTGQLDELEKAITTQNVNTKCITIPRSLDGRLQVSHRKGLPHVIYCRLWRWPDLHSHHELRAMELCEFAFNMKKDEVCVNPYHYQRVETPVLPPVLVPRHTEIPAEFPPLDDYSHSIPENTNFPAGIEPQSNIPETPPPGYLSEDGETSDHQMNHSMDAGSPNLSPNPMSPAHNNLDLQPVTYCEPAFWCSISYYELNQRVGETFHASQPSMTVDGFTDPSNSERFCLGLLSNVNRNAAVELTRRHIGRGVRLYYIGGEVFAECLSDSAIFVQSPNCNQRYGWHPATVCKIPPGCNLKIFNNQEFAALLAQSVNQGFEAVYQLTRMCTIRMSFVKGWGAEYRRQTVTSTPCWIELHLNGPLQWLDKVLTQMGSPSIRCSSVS

What was measured:
Myc-ZNF8 [1] = target: Myc-ZNF8 (UniProt P17098); assay: co-IP; IP with anti-Myc antibody in MDA-MB-231 cells co-transfected with Myc-ZNF8 and Flag-Smad3, with TGF-β1 treatment
Myc-ZNF8 [2] = target: Myc-ZNF8 (UniProt P17098); assay: co-IP; IP with anti-Myc or anti-Flag antibody in HEK293T cells co-transfected with Flag- and Myc-tagged proteins and their deletion mutants or domains
Myc-tagged Smad3 = Myc-tagged Smad3 (UniProt P84022); assay: as above
His-Smad3 = His-Smad3 (UniProt P84022); assay: pull-down; Ni-NTA pulldown with His-Smad3, immunoblotting with anti Smad3 and ZNF8 antibodies; both purified
GST-ZNF8 [3] = target: GST-ZNF8 (UniProt P17098); assay: pull-down; 1 µg GST fusion protein immobilised on Glutathione-Sepharose 4B, incubated with 6× His-tagged protein for 2 hours at 4 °C; 120 mM KCl, 20 mM Tris-HCl pH 7.9, 5 mM MgCl2, 0.2% NP-40; western blot; both purified
Flag-SMYD3 = target: T1, Flag-SMYD3 (UniProt Q9H7B4); assay: co-IP; IP with anti-Myc or anti-Flag antibody in HEK293T cells co-transfected with Flag- and Myc-tagged proteins and their deletion mutants or domains
T1 sequence: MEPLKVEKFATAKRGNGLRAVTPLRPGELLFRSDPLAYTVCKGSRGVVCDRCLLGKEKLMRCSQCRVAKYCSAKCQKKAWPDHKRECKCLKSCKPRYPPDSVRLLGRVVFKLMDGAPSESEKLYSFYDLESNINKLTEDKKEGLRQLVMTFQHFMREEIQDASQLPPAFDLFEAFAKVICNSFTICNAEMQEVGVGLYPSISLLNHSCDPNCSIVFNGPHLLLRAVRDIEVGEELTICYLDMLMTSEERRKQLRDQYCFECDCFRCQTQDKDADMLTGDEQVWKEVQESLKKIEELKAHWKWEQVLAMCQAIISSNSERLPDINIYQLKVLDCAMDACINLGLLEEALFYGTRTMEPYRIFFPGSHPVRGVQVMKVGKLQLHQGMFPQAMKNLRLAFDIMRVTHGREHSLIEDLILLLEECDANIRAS

[4] = target: ZNF8 (endogenous) (human (endogenous in MDA-MB-231, MCF-7, T47D)) (UniProt P17098); assay: co-IP; endogenous proteins, IP with anti-ZNF8 antibodies in MDA-MB-231, MCF-7 and T47D cells; lysis buffer 200 mM KCl, 20 mM Tris-HCl pH 7.9, 0.1% NP-40; overnight at 4 °C
[5] = target: T2, SMYD3 (endogenous) (human (endogenous in MDA-MB-231)) (UniProt Q9H7B4); assay: co-IP; endogenous proteins, IP with SMYD3 antibodies in control and ZNF8 knockout MDA-MB-231 cells; also with activation of the TGF-β pathway
T2 sequence: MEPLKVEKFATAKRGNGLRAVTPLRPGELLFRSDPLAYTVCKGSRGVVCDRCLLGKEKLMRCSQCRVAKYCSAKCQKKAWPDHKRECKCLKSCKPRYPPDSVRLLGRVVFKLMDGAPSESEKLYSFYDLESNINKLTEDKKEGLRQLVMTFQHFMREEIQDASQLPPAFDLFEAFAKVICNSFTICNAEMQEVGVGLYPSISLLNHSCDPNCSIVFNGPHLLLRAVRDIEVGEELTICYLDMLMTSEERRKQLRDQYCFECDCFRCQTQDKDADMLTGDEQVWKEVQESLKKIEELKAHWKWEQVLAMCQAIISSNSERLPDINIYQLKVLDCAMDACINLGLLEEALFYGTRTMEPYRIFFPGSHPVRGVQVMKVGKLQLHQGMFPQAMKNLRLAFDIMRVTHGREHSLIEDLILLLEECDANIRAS

[6] = target: ZNF8 (endogenous) (human (endogenous in MDA-MB-231, MCF-7, T47D)) (UniProt P17098); assay: co-IP; endogenous proteins, IP with anti-ZNF8 antibodies in MDA-MB-231, MCF-7 and T47D cells; lysis buffer 200 mM KCl, 20 mM Tris-HCl pH 7.9, 0.1% NP-40; overnight at 4 °C; remark: listed apart in the source
GST-Smad3 = GST-Smad3 (UniProt P84022); assay: pull-down; 1 µg GST fusion protein immobilised on Glutathione-Sepharose 4B, incubated with 6× His-tagged protein for 2 hours at 4 °C; 120 mM KCl, 20 mM Tris-HCl pH 7.9, 5 mM MgCl2, 0.2% NP-40; western blot; both purified
GST-ZNF8 [7] = target: GST-ZNF8 (UniProt P17098); assay: as above; remark: listed apart in the source

Molecule: Flag-ZNF8 (from UniProt P17098 1-575)
binding (Myc-tagged Smad3): binds

Molecule: GST-ZNF8 (from UniProt P17098 1-575)
binding (His-Smad3): binds

Molecule: Myc-ZNF8 (from UniProt P17098 1-575)
binding (Flag-SMYD3): binds

B2: 6× His-tagged SMYD3 (protein, UniProt Q9H7B4 1-428)
chain: MEPLKVEKFATAKRGNGLRAVTPLRPGELLFRSDPLAYTVCKGSRGVVCDRCLLGKEKLMRCSQCRVAKYCSAKCQKKAWPDHKRECKCLKSCKPRYPPDSVRLLGRVVFKLMDGAPSESEKLYSFYDLESNINKLTEDKKEGLRQLVMTFQHFMREEIQDASQLPPAFDLFEAFAKVICNSFTICNAEMQEVGVGLYPSISLLNHSCDPNCSIVFNGPHLLLRAVRDIEVGEELTICYLDMLMTSEERRKQLRDQYCFECDCFRCQTQDKDADMLTGDEQVWKEVQESLKKIEELKAHWKWEQVLAMCQAIISSNSERLPDINIYQLKVLDCAMDACINLGLLEEALFYGTRTMEPYRIFFPGSHPVRGVQVMKVGKLQLHQGMFPQAMKNLRLAFDIMRVTHGREHSLIEDLILLLEECDANIRAS
binding (GST-Smad3): binds
binding (GST-ZNF8 [7]): binds

Continued, values first:

binding (Myc-ZNF8 [1]): binds
binding (Myc-ZNF8 [2]): binds
Molecule: Flag-Smad3 (from UniProt P84022 1-425)

binding (GST-ZNF8 [3]): binds
Molecule: His-Smad3 (from UniProt P84022 1-425)

binding [4]: binds
binding [5]: binds
Molecule: Smad3 (endogenous) (from UniProt P84022 1-425)

binding [6]: binds
B1: SMYD3 (endogenous) (protein, UniProt Q9H7B4 1-428)
chain: MEPLKVEKFATAKRGNGLRAVTPLRPGELLFRSDPLAYTVCKGSRGVVCDRCLLGKEKLMRCSQCRVAKYCSAKCQKKAWPDHKRECKCLKSCKPRYPPDSVRLLGRVVFKLMDGAPSESEKLYSFYDLESNINKLTEDKKEGLRQLVMTFQHFMREEIQDASQLPPAFDLFEAFAKVICNSFTICNAEMQEVGVGLYPSISLLNHSCDPNCSIVFNGPHLLLRAVRDIEVGEELTICYLDMLMTSEERRKQLRDQYCFECDCFRCQTQDKDADMLTGDEQVWKEVQESLKKIEELKAHWKWEQVLAMCQAIISSNSERLPDINIYQLKVLDCAMDACINLGLLEEALFYGTRTMEPYRIFFPGSHPVRGVQVMKVGKLQLHQGMFPQAMKNLRLAFDIMRVTHGREHSLIEDLILLLEECDANIRAS
